Taken from: PubChem BioAssay AID1053208 (Peter MacCallum Cancer Centre, 2014)
Test: 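Find knock-downs that sensitise mouse osteosarcoma cells to doxorubicin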 (primary screen). Cell system: mouse osteosarcoma cells, early-passage culture from an engineered mouse model of fibroblastic bone tumour. Reagent: siRNA pool against mouse genes, 40 nM. Timing: about 120 h (48 h before drug, then 72 h with drug). Treatment: doxorubicin 100 nM for 72 h, roughly 30-40% inhibitory dose. Detection: 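Viability read as ATP luminescence after 72 h of 100 nM doxorubicin or none, duplicate wells averaged, scaled to non-targeting siRNA, then expressed as robust z-scores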. Direction: viability z-score with doxorubicin: higher = more viable cells under doxorubicin; viability z-score without drug: higher = more viable cells with knock-down alone. Hit rule: 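Called active if knock-down leaves viability unchanged without drug (z within -2 to 2) but lowers it with doxorubicin (z at or under -2)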.
In all, the deposit lists about 17,000 reagents; this is a random part of them. 788 of them (4.7%) count as active. 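Calls rest on z-score classes alone; an extra cut-off of viability at most 70% of control was not applied to them.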 The numbers tell different reagents against one gene apart. Further read-outs or replicates are left out here.

Target gene | reagent no. | combined z-score class | viability z-score with doxorubicin | viability z-score without drug | Outcome
B4galt2 | 1 | no change with or without drug | 1.57 | -0.51 | inactive
Edn2 | 1 | no change with or without drug | -1.12 | -0.51 | inactive
Wsb2 | 1 | no change with or without drug | -0.9 | 0.51 | inactive
H2-K1 | 1 | no change with or without drug | 1.12 | 0.51 | inactive
H2-K1 | 2 | no change with or without drug | -0.67 | -1.35 | inactive
Pcmtd1 | 1 | no change with or without drug | -0.45 | 0.17 | inactive
Cpsf2 | 1 | no change with or without drug | 0.11 | -0.17 | inactive
Ssh1 | 1 | no change with or without drug | -1.12 | -0.34 | inactive
Mmrn1 | 1 | no change with or without drug | 1.12 | 1.69 | inactive
Gnmt | 1 | no change with or without drug | -0.34 | -0.84 | inactive
9030203C11Rik | 1 | high cell count with doxorubicin only | 2.25 | 0.51 | inactive
Lcn3 | 1 | high cell count without drug only | 1.69 | 2.19 | inactive
Atp5me | 1 | no change with or without drug | 0.67 | 0 | inactive
Rps2 | 1 | low cell count with and without drug | -3.15 | -2.53 | inactive
Sugct | 1 | no change with or without drug | -0.9 | -0.34 | inactive
Crygn | 1 | no change with or without drug | 0.34 | 0.67 | inactive
Sinhcaf | 1 | no change with or without drug | 0 | -0.17 | inactive
Ccl2 | 1 | no change with or without drug | -0.34 | 0.17 | inactive
Gnl3l | 1 | low cell count without drug only | -1.35 | -3.2 | inactive
Or2y16 | 1 | low cell count without drug only | -1.24 | -2.02 | inactive
Upk2 | 1 | no change with or without drug | -1.57 | -1.18 | inactive
Tox | 1 | no change with or without drug | 1.01 | -0.51 | inactive
Optn | 1 | no change with or without drug | 1.46 | 0.84 | inactive
D16Ertd472e | 1 | low cell count without drug only | 0.34 | -2.19 | inactive
Lactb2 | 1 | no change with or without drug | 0.56 | 0.51 | inactive
Atp2a2 | 1 | no change with or without drug | -1.35 | -1.85 | inactive
Snrnp200 | 1 | low cell count with and without drug | -4.61 | -8.43 | inactive
Grm6 | 1 | high cell count with doxorubicin only | 2.25 | -0.67 | inactive
Nkx2-9 | 1 | no change with or without drug | 1.35 | 0.84 | inactive
Or8c16 | 1 | no change with or without drug | 0.22 | 0 | inactive
Prm3 | 1 | no change with or without drug | 0.34 | 0 | inactive

Reformatted: entries from further up.
Target gene,reagent no.,combined z-score class,viability z-score with doxorubicin,viability z-score without drug,Outcome
Sugct,1,no change with or without drug,-0.9,-0.34,inactive
Crygn,1,no change with or without drug,0.34,0.67,inactive
Sinhcaf,1,no change with or without drug,0,-0.17,inactive
Ccl2,1,no change with or without drug,-0.34,0.17,inactive
Gnl3l,1,low cell count without drug only,-1.35,-3.2,inactive
Or2y16,1,low cell count without drug only,-1.24,-2.02,inactive
Upk2,1,no change with or without drug,-1.57,-1.18,inactive
Tox,1,no change with or without drug,1.01,-0.51,inactive

The listing continues:
Target gene | reagent no. | combined z-score class | viability z-score with doxorubicin | viability z-score without drug | Outcome
Or9a7 | 1 | no change with or without drug | -0.22 | -0.84 | inactive
Tmx1 | 1 | no change with or without drug | -0.45 | 0 | inactive
Otog | 1 | low cell count with and without drug | -2.14 | -2.19 | inactive
Impdh1 | 1 | no change with or without drug | 0 | 1.18 | inactive
Or51a6 | 1 | low cell count with and without drug | -3.37 | -3.2 | inactive
Cts8 | 1 | no change with or without drug | -0.34 | -0.17 | inactive
Shox2 | 1 | no change with or without drug | 0 | 0.51 | inactive
Calcb | 1 | no change with or without drug | 1.12 | 0.17 | inactive
Trp53inp2 | 1 | no change with or without drug | -0.9 | -1.35 | inactive
Syap1 | 1 | high cell count with doxorubicin only | 2.59 | 0.51 | inactive
Cog4 | 1 | no change with or without drug | 0.11 | -0.17 | inactive
Slc1a7 | 1 | no change with or without drug | -1.69 | -0.17 | inactive
Or8c17 | 1 | no change with or without drug | 0.45 | 1.35 | inactive
Sgsm1 | 1 | high cell count without drug only | -0.22 | 2.53 | inactive
Qtman | 1 | high without drug; low with doxorubicin | -2.02 | 2.19 | inactive
Cyb561a3 | 1 | no change with or without drug | 0 | -0.17 | inactive
Smtn | 1 | no change with or without drug | -0.22 | -0.17 | inactive
Txnrd1 | 1 | no change with or without drug | -0.22 | 0 | inactive
Jak3 | 1 | no change with or without drug | 0.11 | -0.67 | inactive
